Record: PubChem BioAssay AID493246 (Drosophila RNAi Screening Center, 2011)
The deposit covers about 21,000 reagents; this is an unselected part of those with a known target gene and a result. Over the whole deposit, 429 (2%) got an active call. 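Values are raw and not normalised between plates; calls rest on per-plate z-scores that were not deposited.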 Unmarked entries are inactive. The numbers tell different reagents against one gene apart. Names joined by + are all predicted targets of the reagent. Not given: the amount of reagent, the time to read-out.

Assay: 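Genes fly cells need to grow and stay alive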 (primary screen)
Cell system: Drosophila Kc and S2R+ cells
Knock-down reagent: long dsRNA against Drosophila genes
Read-out: 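Cell number per well after knock-down, printed as raw plate values; calls were based on per-plate z-scores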
Direction: Kc cell number and S2R+ cell number: higher = more cells remaining
Rule for the call: 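Active when the per-plate z-score of cell number is 3 or more in the direction of fewer cells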

predicted target | dsRNA no. | Kc cell number, rep 1 | Kc cell number, rep 2 | S2R+ cell number, rep 1 | S2R+ cell number, rep 2
Cpr66D (Cuticular protein 66D) | 1 | 1.39e6 | 1.36e6 | 7.91e5 | 8.97e5
Cpr66D (Cuticular protein 66D) | 2 | 1.55e6 | 1.54e6 | 9.06e5 | 1.02e6
Qtzl (Quetzalcoatl) | 1 | 1.62e6 | 1.67e6 | 1.03e6 | 1.18e6
mRpS7 (mitochondrial ribosomal protein S7) | 1 | 1.48e6 | 1.52e6 | 1.09e6 | 1.22e6
Tsen34 + Trl | 1 | 1.37e6 | 1.36e6 | 1.19e6 | 1.29e6
CG11999 | 1 | 1.51e6 | 1.59e6 | 1.21e6 | 1.28e6
CG11679 | 1 | 4.56e5 | – | 7.11e5 | –
CG5853 | 1 | 1.38e6 | 1.48e6 | 1.01e6 | 1.13e6
CG5853 | 2 | 1.39e6 | 1.41e6 | 1.15e6 | 1.23e6
ddbt (deadbeat) | 1 | 1.48e6 | 1.42e6 | 9.86e5 | 1.14e6
CG16799 | 1 | 1.58e6 | 1.18e6 | 9.84e5 | 1.22e6
CG11286 | 1 | 1.42e6 | 1.49e6 | 1.29e6 | 1.40e6
zfh2 (Zn finger homeodomain 2) | 1 | 5.34e5 | – | 7.50e5 | –
Tsp42A (Tetraspanin 42A) | 1 | 1.57e6 | 1.59e6 | 1.34e6 | 1.41e6
CG13855 | 1 | 1.33e6 | 1.33e6 | 1.16e6 | 1.28e6
CG12128 + CG1407 | 1 | 1.40e6 | 1.46e6 | 1.08e6 | 1.14e6
Cda4 (Chitin deacetylase-like 4) | 1 | 1.47e6 | 1.51e6 | 1.01e6 | 1.09e6
Cda4 (Chitin deacetylase-like 4) | 2 | 1.43e6 | 1.45e6 | 1.04e6 | 1.09e6
Cda4 (Chitin deacetylase-like 4) | 3 | 1.46e6 | 1.49e6 | 1.06e6 | 1.10e6
Mkp3 (Mitogen-activated protein kinase phosphatase 3) | 1 | 1.65e6 | 1.61e6 | 1.29e6 | 1.38e6
Mkp3 (Mitogen-activated protein kinase phosphatase 3) | 2 | 1.40e6 | 1.48e6 | 1.09e6 | 1.20e6
CG11113 | 1 | 1.66e6 | 1.62e6 | 1.37e6 | 1.56e6
CG34196 | 1 | 6.23e5 | – | 7.64e5 | –
CG3690 | 1 | 1.57e6 | 1.58e6 | 1.07e6 | 1.20e6
CG3690 | 2 | 1.58e6 | 1.55e6 | 1.07e6 | 1.17e6
lok (loki) | 1 | 1.40e6 | 1.47e6 | 1.39e6 | 1.42e6
CG11145 | 1 | 1.74e6 | 1.92e6 | 1.30e6 | 1.49e6
ND-24 (NADH dehydrogenase (ubiquinone) 24 kDa subunit) | 1 | 1.45e6 | 1.46e6 | 9.27e5 | 1.04e6
CG15236 | 1 | 1.59e6 | 1.69e6 | 1.29e6 | 1.41e6
miple1 (midkine and pleiotrophin 1) | 1 | 1.31e6 | 1.43e6 | 1.09e6 | 1.27e6
Sptz (Spastizin) | 1 | 1.76e6 | 1.80e6 | 1.41e6 | 1.46e6
fd102C (forkhead domain 102C) | 1 | 1.65e6 | 1.63e6 | 1.10e6 | 1.25e6
PhKgamma (Phosphorylase kinase gamma) | 1 | 5.62e5 | – | 8.31e5 | –
CG14613 | 1 | 1.44e6 | 1.51e6 | 1.02e6 | 1.15e6
CG33140 | 1 | 1.49e6 | 1.52e6 | 1.18e6 | 1.29e6
SCaMC | 1 | 1.41e6 | 1.45e6 | 1.20e6 | 1.17e6
SCaMC | 2 | 1.67e6 | 1.63e6 | 1.31e6 | 1.60e6
CG14439 | 1 | 1.47e6 | 1.47e6 | 1.03e6 | 1.14e6
O-fut1 (O-fucosyltransferase 1) | 1 | 1.40e6 | 1.45e6 | 1.16e6 | 1.21e6
Ir60a (Ionotropic receptor 60a) | 1 | 1.51e6 | 1.55e6 | 1.18e6 | 1.34e6
CtsK1 (Cathepsin K1) | 1 | 1.66e6 | 1.58e6 | 1.16e6 | 1.30e6
CG14142 | 1 | 1.51e6 | 1.74e6 | 1.41e6 | 1.61e6
aurA (aurora A) | 1 | 2.08e6 | 2.09e6 | 1.22e6 | 1.26e6
SmE (Small ribonucleoprotein particle protein SmE) | 1 | 1.17e6 | 1.28e6 | 7.80e5 | 9.11e5
CG5860 | 1 | 1.25e6 | 1.41e6 | 1.21e6 | 1.29e6
BobA | 1 | 1.32e6 | 1.40e6 | 1.14e6 | 1.27e6
Gpo3 (Glycerophosphate oxidase 3) | 1 | 1.63e6 | 1.88e6 | 1.19e6 | 1.30e6
ogre (optic ganglion reduced) | 1 | 6.58e5 | – | 8.95e5 | –
CG7841 | 1 | 1.41e6 | 1.45e6 | 1.32e6 | 1.40e6
Pex6 + Hao | 1 | 1.36e6 | 1.39e6 | 1.16e6 | 1.11e6
Pex6 + Hao | 2 | 1.92e6 | 1.77e6 | 1.40e6 | 1.73e6
CG10183 | 1 | 1.76e6 | 1.63e6 | 9.80e5 | 1.10e6
Snap29 (Synaptosomal-associated protein 29kDa) | 1 | 1.64e6 | 1.74e6 | 1.28e6 | 1.36e6
CG31886 | 1 | 1.33e6 | 1.37e6 | 1.02e6 | 1.06e6
CDK2AP1 (CDK2-associated protein 1) | 1 | 6.33e5 | – | 6.76e5 | –
CG31924 | 1 | 1.60e6 | 1.64e6 | 1.07e6 | 1.24e6
Arp8 (Actin-related protein 8) | 1 | 1.67e6 | 1.69e6 | 1.11e6 | 1.24e6
Mettl2 (Methyltransferase like 2) | 1 | 1.38e6 | 1.41e6 | 1.12e6 | 1.22e6
Tsp68C (Tetraspanin 68C) | 1 | 1.62e6 | 1.70e6 | 1.10e6 | 1.34e6

4 consecutive entries from above, for reference:
predicted target | dsRNA no. | Kc cell number, rep 1 | Kc cell number, rep 2 | S2R+ cell number, rep 1 | S2R+ cell number, rep 2
CG3690 | 1 | 1.57e6 | 1.58e6 | 1.07e6 | 1.20e6
CG3690 | 2 | 1.58e6 | 1.55e6 | 1.07e6 | 1.17e6
lok (loki) | 1 | 1.40e6 | 1.47e6 | 1.39e6 | 1.42e6
CG11145 | 1 | 1.74e6 | 1.92e6 | 1.30e6 | 1.49e6
